{"sequences": {"note": "Sequences of proteins named here, by UniProt entry; tags and fusion partners are left off.", "UniProt Q9QYF3": "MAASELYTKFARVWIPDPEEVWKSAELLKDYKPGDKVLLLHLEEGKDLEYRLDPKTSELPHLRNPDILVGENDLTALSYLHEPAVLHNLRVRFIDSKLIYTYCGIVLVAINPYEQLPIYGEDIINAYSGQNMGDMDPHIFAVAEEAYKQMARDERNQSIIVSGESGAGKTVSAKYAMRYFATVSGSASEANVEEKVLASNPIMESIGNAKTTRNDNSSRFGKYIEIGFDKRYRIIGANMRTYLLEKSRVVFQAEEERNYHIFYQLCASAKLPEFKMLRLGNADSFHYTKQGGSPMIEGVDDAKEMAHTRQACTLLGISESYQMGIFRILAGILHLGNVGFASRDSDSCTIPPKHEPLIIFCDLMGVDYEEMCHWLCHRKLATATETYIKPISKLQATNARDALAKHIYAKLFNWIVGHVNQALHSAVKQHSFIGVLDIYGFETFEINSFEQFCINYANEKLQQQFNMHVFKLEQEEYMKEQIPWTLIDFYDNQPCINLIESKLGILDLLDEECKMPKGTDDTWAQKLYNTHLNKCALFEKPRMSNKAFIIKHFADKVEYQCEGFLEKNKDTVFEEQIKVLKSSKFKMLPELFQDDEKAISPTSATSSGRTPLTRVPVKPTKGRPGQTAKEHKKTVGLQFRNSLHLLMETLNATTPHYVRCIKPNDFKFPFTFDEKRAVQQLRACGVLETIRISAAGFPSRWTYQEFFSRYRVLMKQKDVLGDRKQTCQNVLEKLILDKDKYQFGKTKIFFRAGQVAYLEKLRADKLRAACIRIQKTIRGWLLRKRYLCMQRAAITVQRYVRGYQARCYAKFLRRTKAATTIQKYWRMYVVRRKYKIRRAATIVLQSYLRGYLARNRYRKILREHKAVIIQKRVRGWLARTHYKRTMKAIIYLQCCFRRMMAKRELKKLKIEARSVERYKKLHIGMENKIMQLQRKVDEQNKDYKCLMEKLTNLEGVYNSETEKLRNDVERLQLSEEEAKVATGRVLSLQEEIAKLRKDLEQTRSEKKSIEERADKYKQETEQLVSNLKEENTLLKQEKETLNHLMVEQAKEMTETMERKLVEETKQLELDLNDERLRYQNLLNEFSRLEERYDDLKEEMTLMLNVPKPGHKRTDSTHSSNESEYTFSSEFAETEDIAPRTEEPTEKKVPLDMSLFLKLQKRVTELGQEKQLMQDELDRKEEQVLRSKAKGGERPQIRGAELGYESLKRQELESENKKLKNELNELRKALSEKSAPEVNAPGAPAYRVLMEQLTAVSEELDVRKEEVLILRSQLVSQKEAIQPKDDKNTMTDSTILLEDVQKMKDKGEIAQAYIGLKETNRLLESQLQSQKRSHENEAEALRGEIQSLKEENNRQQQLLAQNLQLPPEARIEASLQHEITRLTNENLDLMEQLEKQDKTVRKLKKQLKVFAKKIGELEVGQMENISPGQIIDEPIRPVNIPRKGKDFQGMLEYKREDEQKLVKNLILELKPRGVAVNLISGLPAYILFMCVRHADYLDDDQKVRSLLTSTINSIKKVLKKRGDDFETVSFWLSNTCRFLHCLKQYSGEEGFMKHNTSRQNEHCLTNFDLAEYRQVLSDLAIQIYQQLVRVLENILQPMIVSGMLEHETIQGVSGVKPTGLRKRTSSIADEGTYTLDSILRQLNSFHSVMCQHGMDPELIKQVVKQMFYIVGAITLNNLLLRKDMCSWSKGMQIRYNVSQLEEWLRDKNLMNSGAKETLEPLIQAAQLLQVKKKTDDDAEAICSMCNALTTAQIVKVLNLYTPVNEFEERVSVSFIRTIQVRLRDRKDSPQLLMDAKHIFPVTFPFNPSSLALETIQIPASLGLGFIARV"}, "source": "paper PMC4407996", "target": "Myosin Va (endogenous, neurons) (rat (endogenous in cultured neurons)) (UniProt Q9QYF3)", "test": "co-IP; precleared lysates of DIV6 or DIV9 rat hippocampal neurons incubated with Myosin Va antibody bound Protein A beads overnight at 4°C; immunoblots for TAO1 and phosphoTAO1/2", "note": "No constants are given. Whether binding was seen depends on the method and setting. In cells and extracts the contact can be indirect. Some entries that bind do so weakly or less than the wild type."}
{"binder": "TAO1 (endogenous, hippocampal neurons) (enzyme, UniProt O88664 1-1001) MPSTNRAGSLKDPEIAELFFKEDPEKLFTDLREIGHGSFGAVYFARDVRTNEVVAIKKMSYSGKQSTEKWQDIIKEVKFLQRIKHPNSIEYKGCYLREHTAWLVMEYCLGSASDLLEVHKKPLQEVEIAAITHGALQGLAYLHSHTMIHRDIKAGNILLTEPGQVKLADFGSASMASPANSFVGTPYWMAPEVILAMDEGQYDGKVDVWSLGITCIELAERKPPLFNMNAMSALYHIAQNESPTLQSNEWSDYFRNFVDSCLQKIPQDRPTSEELLKHMFVLRERPETVLIDLIQRTKDAVRELDNLQYRKMKKLLFQEAHNGPAVEAQEEEEEQDHGGGRTGTVNSVGSNQSIPSMSISASSQSSSVNSLPDASDDKSELDMMEGDHTVMSNSSVIHLKPEEENYQEEGDPRTRASAPQSPPQVSRHKSHYRNREHFATIRTASLVTRQMQEHEQDSELREQMSGYKRMRRQHQKQLMTLENKLKAEMDEHRLRLDKDLETQRNNFAAEMEKLIKKHQASMEKEAKVMANEEKKFQQHIQAQQKKELNSFLESQKREYKLRKEQLKEELNENQSTPKKEKQEWLSKQKENIQHFQAEEEANLLRRQRQYLELECRRFKRRMLLGRHNLEQDLVREELNKRQTQKDLEHAMLLRQHESMQELEFRHLNTIQKMRCELIRLQHQTELTNQLEYNKRRERELRRKHVMEVRQQPKSLKSKELQIKKQFQDTCKIQTRQYKALRNHLLETTPKSEHKAVLKRLKEEQTRKLAILAEQYDHSINEMLSTQALRLDEAQEAECQVLKMQLQQELELLNAYQSKIKMQAEAQHDRELRELEQRVSLRRALLEQKIEEEMLALQNERTERIRSLLERQAREIEAFDSESMRLGFSNMVLSNLSPEAFSHSYPGASSWSHNPTGGSGPHWGHPMGGTPQAWGHPMQGGPQPWGHPSGPMQGVPRGSSIGVRNSPQALRRTASGGRTEQGMSRSTSVTSQISNGSHMSYT", "values": [{"measurement": "binding", "value": "binds"}]}
